Data as given in PubChem BioAssay AID652272 (Drosophila RNAi Screening Center, 2013)
Purpose: 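Genome-wide knock-down search for components of Hedgehog signalling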 (primary screen). System: Drosophila clone 8 (Cl8) cells. Reagent: long dsRNA against Drosophila genes. Measurement: 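Firefly light from a Hedgehog-responsive ptc promoter reporter and Renilla reference light, both read on a plate reader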. Direction: firefly Hh reporter signal: higher = more ptc reporter light; Renilla reference signal: higher = more Renilla control light. Hit rule: 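Called a hit if the two-replicate mean z-score lies below -2 or above +3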. Calls: active = hit: reporter lowered or raised; inactive = not a hit.
The deposit covers about 21,000 reagents; below is an unselected part of those that have a named target and a result. Of all reagents, 503 (2.4%) got an active call. 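Raw plate light values, not normalised; calls rest on replicate z-scores that were not deposited; hits include reporter decreases as well as increases.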 A plus sign joins genes that one reagent is predicted to hit. No sequences are given here. Not stated in the record: the amount of reagent, the time to read-out.

no.	gene knocked down	dsRNA	firefly Hh reporter signal, replicate 1	firefly Hh reporter signal, replicate 2	firefly Hh reporter signal, replicate 3	Renilla reference signal, replicate 1	Renilla reference signal, replicate 2	outcome
1	CstF50 (Cleavage stimulation factor 50 kD subunit)	DRSC15434	1.30e5	54859		3767	2141	inactive
2	Hcf (Host cell factor)	DRSC17143	2.12e5	96913		3620	2506	inactive
3	CG4198	DRSC18354	1.12e5	1.08e5		2576	2682	inactive
4	CG15126	DRSC06548	1.21e5	59377		3101	4422	inactive
5	wisp (wispy)	DRSC19703	1.50e5	83036		3063	2032	inactive
6	CG2694	DRSC18470	1.24e5	1.09e5		2658	3820	inactive
7	Pcf11 (Pcf11 cleavage and polyadenylation factor subunit)	DRSC05983	32956	21012		2457	512	inactive
8	CG4520	DRSC15590	93069	87704		3335	2546	inactive
9	TTLL4B (Tubulin tyrosine ligase-like 4B)	DRSC00636	42188	64512		2513	3098	inactive
10	Idh (Isocitrate dehydrogenase)	DRSC10779	92582	53392		3192	2192	inactive
11	CG34251	DRSC09498	3.46e5			7312		inactive
12	CG34251	DRSC09500	2.73e5			6791		inactive
13	alphaCOP (Coat Protein (coatomer) alpha)	DRSC08706	58280	40967		4288	3238	active
14	sau (sauron)	DRSC00694	1.11e5	80677		4615	3812	inactive
15	Pdp1 (PAR-domain protein 1)	DRSC08896	31617	49396		1040	2120	inactive
16	Pdp1 (PAR-domain protein 1)	DRSC08897	23932	40752		984	2838	inactive
17	Pdp1 (PAR-domain protein 1)	DRSC11251	57365	57685		7700	4555	inactive
18	Vajk3	DRSC01883	88076	67509		4379	2810	inactive
19	CG15353	DRSC00383	1.29e5	6.14e5	1.11e5	2752	4583	inactive
20	Gr10b (Gustatory receptor 10b)	DRSC19477	92970	2.16e5		3162	8269	inactive
21	Pis (Phosphatidylinositol synthase)	DRSC20178	78921	2.04e5		1664	9384	inactive
22	Trx2 (Thioredoxin 2)	DRSC03622	1.57e5	87905		3938	6208	inactive
23	CG10417	DRSC04846	1.35e5	1.27e5		5045	4384	inactive
24	CG14615	DRSC20627	45175	1.63e5		1296	7344	inactive
25	CG4686	DRSC15622	7.71e5	1.41e5		37783	4611	inactive
26	Obp56i (Odorant-binding protein 56i)	DRSC05812	1.34e5	2.92e5		3952	11276	inactive
27	CG7950 + Rpp14a	DRSC16353	64060	43859		1691	1776	inactive
28	AnxB11 (Annexin B11)	DRSC19331	79308	70464		1653	1293	inactive
29	Teh1 (tipE homolog 1)	DRSC14544	1.33e5	1.81e5		3654	4871	inactive
30	Adf1 (Adh transcription factor 1)	DRSC04941	1.84e5	3.29e5		3896	11436	inactive
31	Adf1 (Adh transcription factor 1)	DRSC04963	1.18e5	68555		4118	2288	inactive
32	RpS15Ab + RpS15Aa	DRSC06129	35226	15992		1488	2073	active
33	RpS15Ab + RpS15Aa	DRSC19831	24640	1.02e5		1751	7147	active
34	egh (egghead)	DRSC18771	66535	1.04e5		3142	4945	inactive
35	CG43109	DRSC05754	89265	1.97e5		2241	8248	inactive
36	CG17666	DRSC10276	44128	36273	71301	4777	5210	inactive
37	CG31313	DRSC13044	49253	1.31e5		10576	2562	inactive
38	Naa80 (N(alpha)-acetyltransferase 80)	DRSC16429	59530	92932		1798	2854	inactive
39	Brms1 (BRMS1 transcriptional repressor)	DRSC19896	47152	1.62e5		1482	6315	inactive
40	Hml (Hemolectin)	DRSC11183	46346	37932	55093	3520	3378	inactive
41	CG14100	DRSC10101	1.00e5	1.09e5		3616	2989	inactive
42	CG42580	DRSC20397	6.50e5	2.65e5		38564	6104	inactive
43	CG11655	DRSC19413	68889	1.94e5		2005	7648	inactive
44	flip (flippy)	DRSC12326	1.33e5	1.36e5		4652	16970	inactive
45	CG11106	DRSC19381	70099	1.60e5		1819	7164	inactive
46	ArgRS-m (Arginyl-tRNA synthetase, mitochondrial)	DRSC14186	58987	4.93e5	1.41e5	2345	3602	inactive
47	CG9330	DRSC11066	94729	1.11e5		3127	3107	inactive
48	CG13096	DRSC02198	67981	34768		2064	4107	inactive
49	CG10077	DRSC09691	82000	1.10e5		2987	3568	inactive
50	CG15056	DRSC19630	85253	3.67e5		2672	13236	inactive
51	Gycalpha99B (Guanylyl cyclase alpha-subunit at 99B)	DRSC16690	82706	1.19e5		2113	3195	inactive
52	CG31109	DRSC14648	5.14e5	1.07e5		28796	3316	inactive
53	hop (hopscotch)	DRSC20340	88483	3.22e5		3203	10445	inactive
54	sav (salvador)	DRSC14681	4.99e5	88627		26341	2826	inactive
55	sav (salvador)	DRSC14682	4.63e5	75972		22998	2481	inactive
56	Edem2 (ER degradation enhancer, mannosidase alpha-like 2)	DRSC02877	2.16e5	88336		5657	7121	inactive
57	Ttc1 (Tetratricopeptide repeat domain 1)	DRSC15016	1.65e5	1.20e5		4903	2836	inactive

6 consecutive entries already listed, quoted:
no.	gene knocked down	dsRNA	firefly Hh reporter signal, replicate 1	firefly Hh reporter signal, replicate 2	firefly Hh reporter signal, replicate 3	Renilla reference signal, replicate 1	Renilla reference signal, replicate 2	outcome
41	CG14100	DRSC10101	1.00e5	1.09e5		3616	2989	inactive
42	CG42580	DRSC20397	6.50e5	2.65e5		38564	6104	inactive
43	CG11655	DRSC19413	68889	1.94e5		2005	7648	inactive
44	flip (flippy)	DRSC12326	1.33e5	1.36e5		4652	16970	inactive
45	CG11106	DRSC19381	70099	1.60e5		1819	7164	inactive
46	ArgRS-m (Arginyl-tRNA synthetase, mitochondrial)	DRSC14186	58987	4.93e5	1.41e5	2345	3602	inactive
